Test results taken from US20240308878A1, “WATER TREATMENT SYSTEM, WATER TREATMENT METHOD, AND AMINE SOLUTION” (KABUSHIKI KAISHA TOSHIBA, priority 2023, published 2024).
Several values for one entry are separate records, joined by “and”; a condition that tells them apart may be missing. Equal values may be shown once.

Columns and labels:
[1] = Salt concentration / salt removal test: 10 wt % NaCl solution mixed with amine at room temperature, supernatant Cl by ion chromatography; assay type: physicochemical; conditions: for Concentration/Precipition: liquid concentrated phase or solid precipitate; for Salt Removal Rate 1: first test
[2] = Same salt removal test repeated with the amine phase recovered from the heated supernatant; assay type: physicochemical; conditions: recovered amine phase reused
[3] = S/F (solvent/feed volume ratio) 4.0, room temperature

Compound	salt concentration of the concentrate separated in the lower phase ([1]; S/F 4.0) [wt %]	Concentration/Precipition ([1]; S/F 4.0)	Concentration/Precipition ([1]; S/F 10.0)	Salt Concentration of Concentrate ([1]; Table 1, S/F 4.0) [%]	Salt Removal Rate 2 ([2]; S/F 4.0) [%]	concentration of the lower phase being separated ([2]; S/F 4.0) [wt %]	Salt Removal Rate 2 ([2]; S/F 6.0)	concentration of the lower phase being separated ([2]; S/F 6.0) [wt %]	Salt Removal Rate 2 ([2]; S/F 7.0) [%]	Salt Removal Rate 2 ([2]; S/F 10.0) [%]	salt concentration of the concentrate separated in the lower phase ([1]; S/F 6.0) [wt %]	volume of the lower phase, of the volume of the input aqueous phase ([1]; S/F 6.0) [%]	Concentration/Precipition ([1]; S/F 6.0)	Concentration/Precipition ([1]; S/F 7.0)	Salt Concentration of Concentrate ([1]; Table 1, S/F 6.0) [%]	Salt Removal Rate 1 ([1]; S/F 6.0, room temperature)	Salt Removal Rate 1 ([1]; S/F 7.0, room temperature)	Salt Removal Rate 1 ([1]; S/F 10.0, room temperature) [%]	Salt Removal Rate 1 [1, 3]	further results
CC(C)NC(C)C [diisopropylamine, reference compound]	15.0	Concentration	Concentration	15.0																salt concentration of the concentrate separated in the lower phase ([1]; S/F 10.0): 24.0 wt %; salt concentration of the concentrate separated in the lower phase ([1]; S/F 15.0): 25.9 wt %; Concentration/Precipition ([1]; S/F 15.0): Concentration; Salt Concentration of Concentrate ([1]; Table 1, S/F 10.0): 24.0%; Salt Concentration of Concentrate ([1]; Table 1, S/F 15.0): 25.9%
C1CCN(CCCN2CCCC2)C1 [chemical formula (1-2)]	21.0	Concentration	Precipition	21.0	97.5	21.2	98.5%	25.9	99.2	99.0	25.9	54	Concentration	Precipition	25.9	98.7%	99.0%	99.0	97%	volume of the lower phase, of the volume of the input aqueous phase ([1]; S/F 4.0): 52%
CCOC(=O)N1CCN(CCCN2CCN(C(=O)OCC)CC2)CC1 [chemical formula (2-1)]	22.0	Concentration	Precipition	21.0	97.5	21.2	99.0% and 98.5%	25.3	99.2	99.0	25.5	50	Concentration	Precipition	25.9	98.3% and 98.7%	98.3% and 99.0%	99.0	96.5% and 97.0%	
